Experimental data as given in article PMC4910015.
No constants are given. Whether binding was seen depends on the method and setting. Binding seen in cells or lysates may run through a third protein. Some entries that bind do so weakly or less than the wild type.

Chains of the proteins cited; added tags and fusions are not shown. Lines headed by an entry give the natural chain unless they say otherwise; changes in a name come on top. A line that says so, or that is headed by a name, gives the form on record, which may keep a tag or linker.
UniProt Q03135: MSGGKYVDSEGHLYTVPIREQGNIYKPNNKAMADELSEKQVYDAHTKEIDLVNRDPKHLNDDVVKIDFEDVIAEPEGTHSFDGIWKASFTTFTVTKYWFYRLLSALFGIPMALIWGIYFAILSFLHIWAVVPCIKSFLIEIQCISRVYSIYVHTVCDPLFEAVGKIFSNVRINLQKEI
UniProt P61586: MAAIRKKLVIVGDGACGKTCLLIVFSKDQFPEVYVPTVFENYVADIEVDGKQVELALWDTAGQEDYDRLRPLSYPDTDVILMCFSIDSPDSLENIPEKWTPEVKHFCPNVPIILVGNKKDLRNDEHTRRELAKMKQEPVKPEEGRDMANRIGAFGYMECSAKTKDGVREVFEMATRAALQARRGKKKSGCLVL
HA-RhoA V14 (constitutively active form) (P61586, form named): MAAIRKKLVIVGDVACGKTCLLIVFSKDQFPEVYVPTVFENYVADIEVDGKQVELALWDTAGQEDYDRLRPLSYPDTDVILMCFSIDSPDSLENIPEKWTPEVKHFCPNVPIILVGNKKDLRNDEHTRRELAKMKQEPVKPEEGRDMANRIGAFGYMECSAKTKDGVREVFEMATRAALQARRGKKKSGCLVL
RhoA N19 (dominant negative form) (P61586, form named): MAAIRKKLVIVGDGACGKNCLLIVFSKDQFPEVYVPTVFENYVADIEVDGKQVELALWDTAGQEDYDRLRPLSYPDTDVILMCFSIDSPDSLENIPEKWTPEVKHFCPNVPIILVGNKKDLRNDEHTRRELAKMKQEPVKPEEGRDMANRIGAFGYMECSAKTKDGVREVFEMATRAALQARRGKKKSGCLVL
UniProt P63096: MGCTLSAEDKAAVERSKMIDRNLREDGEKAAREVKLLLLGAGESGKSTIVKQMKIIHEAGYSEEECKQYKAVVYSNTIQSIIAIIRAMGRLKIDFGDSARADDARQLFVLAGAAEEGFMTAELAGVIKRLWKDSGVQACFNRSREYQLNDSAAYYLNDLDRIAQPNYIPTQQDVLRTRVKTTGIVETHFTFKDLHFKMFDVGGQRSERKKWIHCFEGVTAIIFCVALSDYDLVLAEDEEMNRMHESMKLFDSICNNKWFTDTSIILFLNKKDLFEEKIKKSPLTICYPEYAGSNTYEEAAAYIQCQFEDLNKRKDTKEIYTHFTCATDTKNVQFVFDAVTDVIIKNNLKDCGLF

Biological target: GFP-tagged caveolin-1 (human) (UniProt Q03135)
Assay: co-IP; GFP-caveolin-1 immunoprecipitated with anti-GFP antibody-conjugated beads from total lysates (buffer A: 50 mM Hepes pH 7.4, 50 mM NaCl, 0.5% NP-40), 3 h, washed three times with buffer B; western blot with anti-RhoA, anti-Gαi1, anti-GFP; cells mitotically arrested (10 μM STLC) or synchronized by release from a double thymidine block

binding	Substance
binds	HA-RhoA V14 (constitutively active form) (from UniProt P61586 1-193)
binds weakly	RhoA N19 (dominant negative form) (from UniProt P61586 1-193)
binds	endogenous Gαi1 (from UniProt P63096 1-354)
